Values quoted from earlier work in US20030049336A1, “Composition and method for topical treatment of androgenic alopecia” (priority 1995, published 2003).
For at least one compound, name, drawing or mass did not settle the structure.

Tested on: vertex balding
Details: selected patients with vertex balding who are young, recently diagnosed and display small areas of alopecia; maximum

In the case of `Nc1cc(N2CCCCC2)nc(N)[n+]1[O-]` [Minoxidil], the cosmetic responses is given as no more than 40%.
